# Data as given in PubChem BioAssay AID743121 (NCATS, 2013)
# Screen: 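Partners whose loss is lethal together with topoisomerase I blockade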 (primary screen)
# System: MDA-MB-231 cells, a human breast cancer line
# Reagent: single siRNA against human genes, 20 nM siRNA (0.8 pmol per well)
# Duration: 120 h (drug added 48 h after transfection, read 72 h later)
# Challenge: camptothecin 20 nM (about EC30) for 72 h; vehicle 0.1% DMSO in parallel plates
# Read-out: 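Cell viability by ATP luminescence (CellTiter-Glo) as % of non-targeting siRNA wells, and the log2 ratio of viability without drug over viability with camptothecin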
# Reading the numbers: log2 vehicle/camptothecin viability: higher = stronger sensitisation to camptothecin; viability with camptothecin and viability without drug: higher = more viable cells
# Rule for the call: 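Each gene scored by redundant siRNA activity (RSA) over its individual siRNA ratios; a gene is called active at p < 0.001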
# This is an unselected part of about 26,000 reagents tested. 167 of them (0.63%) count as active. 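Calls are per gene from RSA p-values that are not deposited; an individual active-marked siRNA can sensitise only weakly.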 Entries without a mark were called inactive.
Target gene,PubChem SID,log2 vehicle/camptothecin viability,viability with camptothecin (% of control),viability without drug (% of control)
OR56B1 (olfactory receptor family 56 subfamily B member 1),SID164677179,0.874,23.7,43.5
OR56B1 (olfactory receptor family 56 subfamily B member 1),SID164677180,-0.531,101,69.9
OR56B1 (olfactory receptor family 56 subfamily B member 1),SID164677181,0.0189,73.4,74.4
OR56B1 (olfactory receptor family 56 subfamily B member 1),SID164677182,-0.384,62.6,48
TNN (tenascin N),SID164500304,-0.35,127,99.6
TNN (tenascin N),SID164500305,-0.0604,52.3,50.2
TNN (tenascin N),SID164500306,0.0131,118,119
TNN (tenascin N),SID164500308,0.0976,95.5,102
PMS2P2,SID164381426,-0.305,105,85
HNF1A (HNF1 homeobox A),SID164391082,-0.399,90.1,68.4
HNF1A (HNF1 homeobox A),SID164391083,0.0455,59.6,61.5
HNF1A (HNF1 homeobox A),SID164391085,-0.493,100,71.2
HNF1A (HNF1 homeobox A),SID164391086,-0.178,112,99
SERPINA6 (serpin family A member 6),SID164356774,0.275,39.4,47.7
SERPINA6 (serpin family A member 6),SID164356775,-0.32,66.8,53.5
SERPINA6 (serpin family A member 6),SID164356776,0.0675,48.1,50.4
SERPINA6 (serpin family A member 6),SID164356777,0.883,27.6,50.9

The list goes on, starting with the last 6 of the part before.
Target gene,PubChem SID,log2 vehicle/camptothecin viability,viability with camptothecin (% of control),viability without drug (% of control)
HNF1A (HNF1 homeobox A),SID164391085,-0.493,100,71.2
HNF1A (HNF1 homeobox A),SID164391086,-0.178,112,99
SERPINA6 (serpin family A member 6),SID164356774,0.275,39.4,47.7
SERPINA6 (serpin family A member 6),SID164356775,-0.32,66.8,53.5
SERPINA6 (serpin family A member 6),SID164356776,0.0675,48.1,50.4
SERPINA6 (serpin family A member 6),SID164356777,0.883,27.6,50.9
SPAG5 (sperm associated antigen 5),SID164412345,-0.182,84.6,74.5
SPAG5 (sperm associated antigen 5),SID164412347,0.339,59.2,74.9
SPAG5 (sperm associated antigen 5),SID164412348,-0.0905,91.2,85.6
SPAG5 (sperm associated antigen 5),SID164412349,0.722,15,24.8
TP53BP1 (tumor protein p53 binding protein 1),SID164392387,-0.289,102,83.8
TP53BP1 (tumor protein p53 binding protein 1),SID164392388,-0.121,96.2,88.5
TP53BP1 (tumor protein p53 binding protein 1),SID164392390,0.676,44.5,71.1
TP53BP1 (tumor protein p53 binding protein 1),SID164392393,-0.19,91.1,79.8
MAOB (monoamine oxidase B),SID164374765,-0.318,26.3,21.1
MAOB (monoamine oxidase B),SID164374766,-0.192,118,103
MAOB (monoamine oxidase B),SID164374769,-0.149,103,92.9
MAOB (monoamine oxidase B),SID164374770,-0.179,115,101
BMP1 (bone morphogenetic protein 1),SID164355391,-0.267,104,86.2
BMP1 (bone morphogenetic protein 1),SID164355395,-0.00243,65,64.8
BMP1 (bone morphogenetic protein 1),SID164355399,-0.322,89.9,71.9
MIP (major intrinsic protein of lens fiber),SID164375588,-0.0567,91.5,88
MIP (major intrinsic protein of lens fiber),SID164375590,-0.0985,101,94.3
MIP (major intrinsic protein of lens fiber),SID164375591,0.0677,96.6,101
MIP (major intrinsic protein of lens fiber),SID164375592,0.0543,67,69.5
CHRNA2 (cholinergic receptor nicotinic alpha 2 subunit),SID164358413,-0.0766,65.6,62.2
CHRNA2 (cholinergic receptor nicotinic alpha 2 subunit),SID164358414,0.579,50.3,75.1
CHRNA2 (cholinergic receptor nicotinic alpha 2 subunit),SID164358415,-0.602,64.1,42.3
CHRNA2 (cholinergic receptor nicotinic alpha 2 subunit),SID164358417,0.474,23.8,33
ASB11 (ankyrin repeat and SOCS box containing 11),SID164571462,-0.357,80.6,62.9
ASB11 (ankyrin repeat and SOCS box containing 11),SID164571463,0.0432,77.5,79.9
ASB11 (ankyrin repeat and SOCS box containing 11),SID164571464,-0.0494,81.2,78.5
ASB11 (ankyrin repeat and SOCS box containing 11),SID164571465,-0.221,100,86
PLCB2 (phospholipase C beta 2),SID164381069,-0.515,89,62.3
PLCB2 (phospholipase C beta 2),SID164381070,-0.27,89.1,73.8
PLCB2 (phospholipase C beta 2),SID164381074,-0.225,80.6,69
